In paper PMC6191444:
No constants are given. Whether binding was seen depends on the method and setting. In cells and extracts the contact can be indirect. Here binding means that the protein was enriched with, or labelled near, the bait; the list need not be complete. No binding means not detected with the bait. Tags and fused reporters may be left off the sequences shown.

Protein sequences, listed by entry. Tags and fused reporters are not part of them.
UniProt Q9NP66: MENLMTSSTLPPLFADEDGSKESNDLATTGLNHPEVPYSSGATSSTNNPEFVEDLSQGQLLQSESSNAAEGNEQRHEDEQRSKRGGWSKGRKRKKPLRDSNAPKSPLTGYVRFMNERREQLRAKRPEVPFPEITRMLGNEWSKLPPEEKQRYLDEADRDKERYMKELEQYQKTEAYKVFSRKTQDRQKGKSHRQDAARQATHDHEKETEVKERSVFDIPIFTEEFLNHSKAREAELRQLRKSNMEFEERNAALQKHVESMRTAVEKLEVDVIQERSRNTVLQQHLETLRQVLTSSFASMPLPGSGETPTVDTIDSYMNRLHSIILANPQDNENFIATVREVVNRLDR
UniProt Q14839: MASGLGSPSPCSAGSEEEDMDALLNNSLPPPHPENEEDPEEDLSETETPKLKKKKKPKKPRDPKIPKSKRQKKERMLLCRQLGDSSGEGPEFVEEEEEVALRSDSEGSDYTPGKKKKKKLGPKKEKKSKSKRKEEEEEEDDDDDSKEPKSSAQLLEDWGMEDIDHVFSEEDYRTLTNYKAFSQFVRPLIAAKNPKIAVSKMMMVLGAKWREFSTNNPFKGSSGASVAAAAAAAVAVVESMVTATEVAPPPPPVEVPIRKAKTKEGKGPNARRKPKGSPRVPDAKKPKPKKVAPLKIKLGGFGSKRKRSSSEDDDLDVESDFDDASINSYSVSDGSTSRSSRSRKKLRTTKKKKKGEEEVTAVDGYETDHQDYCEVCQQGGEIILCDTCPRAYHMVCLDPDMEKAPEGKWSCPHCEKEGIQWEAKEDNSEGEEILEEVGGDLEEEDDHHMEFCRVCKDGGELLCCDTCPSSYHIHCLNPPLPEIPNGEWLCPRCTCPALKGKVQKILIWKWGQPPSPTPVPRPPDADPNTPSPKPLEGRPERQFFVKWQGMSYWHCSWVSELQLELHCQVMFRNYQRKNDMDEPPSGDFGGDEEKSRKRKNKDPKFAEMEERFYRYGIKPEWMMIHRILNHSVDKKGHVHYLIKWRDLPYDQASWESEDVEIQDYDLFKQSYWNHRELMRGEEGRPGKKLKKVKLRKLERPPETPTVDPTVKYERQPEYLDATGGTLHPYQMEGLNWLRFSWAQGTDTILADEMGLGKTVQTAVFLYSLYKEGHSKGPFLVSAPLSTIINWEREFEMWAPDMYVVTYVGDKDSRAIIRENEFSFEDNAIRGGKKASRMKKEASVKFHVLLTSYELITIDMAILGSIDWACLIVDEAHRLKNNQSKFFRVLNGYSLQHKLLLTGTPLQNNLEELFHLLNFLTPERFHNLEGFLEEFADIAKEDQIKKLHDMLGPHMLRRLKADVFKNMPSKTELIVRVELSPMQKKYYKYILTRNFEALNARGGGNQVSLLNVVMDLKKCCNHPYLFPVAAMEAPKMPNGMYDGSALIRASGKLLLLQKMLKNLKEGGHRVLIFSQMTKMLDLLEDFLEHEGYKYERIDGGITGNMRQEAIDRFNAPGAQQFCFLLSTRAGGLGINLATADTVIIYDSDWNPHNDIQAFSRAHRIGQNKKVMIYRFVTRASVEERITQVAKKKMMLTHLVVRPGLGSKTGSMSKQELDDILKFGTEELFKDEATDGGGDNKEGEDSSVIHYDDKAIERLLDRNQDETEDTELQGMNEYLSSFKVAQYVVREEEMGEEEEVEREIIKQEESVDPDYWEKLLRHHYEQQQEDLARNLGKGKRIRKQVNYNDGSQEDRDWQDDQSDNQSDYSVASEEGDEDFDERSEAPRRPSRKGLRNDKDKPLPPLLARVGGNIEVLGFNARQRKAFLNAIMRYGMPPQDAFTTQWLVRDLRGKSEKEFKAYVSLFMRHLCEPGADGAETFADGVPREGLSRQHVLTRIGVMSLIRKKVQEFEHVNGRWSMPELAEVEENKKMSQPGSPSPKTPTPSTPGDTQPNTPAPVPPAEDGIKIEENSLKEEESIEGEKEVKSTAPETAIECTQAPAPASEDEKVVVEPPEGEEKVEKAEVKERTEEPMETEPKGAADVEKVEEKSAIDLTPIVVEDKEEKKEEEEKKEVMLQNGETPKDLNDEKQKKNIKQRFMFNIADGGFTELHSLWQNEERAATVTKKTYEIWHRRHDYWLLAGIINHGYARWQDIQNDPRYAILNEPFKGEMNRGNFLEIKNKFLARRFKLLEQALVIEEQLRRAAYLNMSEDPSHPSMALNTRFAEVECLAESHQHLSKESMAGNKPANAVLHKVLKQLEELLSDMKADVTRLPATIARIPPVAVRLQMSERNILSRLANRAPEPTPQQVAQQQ
UniProt Q8TDI0: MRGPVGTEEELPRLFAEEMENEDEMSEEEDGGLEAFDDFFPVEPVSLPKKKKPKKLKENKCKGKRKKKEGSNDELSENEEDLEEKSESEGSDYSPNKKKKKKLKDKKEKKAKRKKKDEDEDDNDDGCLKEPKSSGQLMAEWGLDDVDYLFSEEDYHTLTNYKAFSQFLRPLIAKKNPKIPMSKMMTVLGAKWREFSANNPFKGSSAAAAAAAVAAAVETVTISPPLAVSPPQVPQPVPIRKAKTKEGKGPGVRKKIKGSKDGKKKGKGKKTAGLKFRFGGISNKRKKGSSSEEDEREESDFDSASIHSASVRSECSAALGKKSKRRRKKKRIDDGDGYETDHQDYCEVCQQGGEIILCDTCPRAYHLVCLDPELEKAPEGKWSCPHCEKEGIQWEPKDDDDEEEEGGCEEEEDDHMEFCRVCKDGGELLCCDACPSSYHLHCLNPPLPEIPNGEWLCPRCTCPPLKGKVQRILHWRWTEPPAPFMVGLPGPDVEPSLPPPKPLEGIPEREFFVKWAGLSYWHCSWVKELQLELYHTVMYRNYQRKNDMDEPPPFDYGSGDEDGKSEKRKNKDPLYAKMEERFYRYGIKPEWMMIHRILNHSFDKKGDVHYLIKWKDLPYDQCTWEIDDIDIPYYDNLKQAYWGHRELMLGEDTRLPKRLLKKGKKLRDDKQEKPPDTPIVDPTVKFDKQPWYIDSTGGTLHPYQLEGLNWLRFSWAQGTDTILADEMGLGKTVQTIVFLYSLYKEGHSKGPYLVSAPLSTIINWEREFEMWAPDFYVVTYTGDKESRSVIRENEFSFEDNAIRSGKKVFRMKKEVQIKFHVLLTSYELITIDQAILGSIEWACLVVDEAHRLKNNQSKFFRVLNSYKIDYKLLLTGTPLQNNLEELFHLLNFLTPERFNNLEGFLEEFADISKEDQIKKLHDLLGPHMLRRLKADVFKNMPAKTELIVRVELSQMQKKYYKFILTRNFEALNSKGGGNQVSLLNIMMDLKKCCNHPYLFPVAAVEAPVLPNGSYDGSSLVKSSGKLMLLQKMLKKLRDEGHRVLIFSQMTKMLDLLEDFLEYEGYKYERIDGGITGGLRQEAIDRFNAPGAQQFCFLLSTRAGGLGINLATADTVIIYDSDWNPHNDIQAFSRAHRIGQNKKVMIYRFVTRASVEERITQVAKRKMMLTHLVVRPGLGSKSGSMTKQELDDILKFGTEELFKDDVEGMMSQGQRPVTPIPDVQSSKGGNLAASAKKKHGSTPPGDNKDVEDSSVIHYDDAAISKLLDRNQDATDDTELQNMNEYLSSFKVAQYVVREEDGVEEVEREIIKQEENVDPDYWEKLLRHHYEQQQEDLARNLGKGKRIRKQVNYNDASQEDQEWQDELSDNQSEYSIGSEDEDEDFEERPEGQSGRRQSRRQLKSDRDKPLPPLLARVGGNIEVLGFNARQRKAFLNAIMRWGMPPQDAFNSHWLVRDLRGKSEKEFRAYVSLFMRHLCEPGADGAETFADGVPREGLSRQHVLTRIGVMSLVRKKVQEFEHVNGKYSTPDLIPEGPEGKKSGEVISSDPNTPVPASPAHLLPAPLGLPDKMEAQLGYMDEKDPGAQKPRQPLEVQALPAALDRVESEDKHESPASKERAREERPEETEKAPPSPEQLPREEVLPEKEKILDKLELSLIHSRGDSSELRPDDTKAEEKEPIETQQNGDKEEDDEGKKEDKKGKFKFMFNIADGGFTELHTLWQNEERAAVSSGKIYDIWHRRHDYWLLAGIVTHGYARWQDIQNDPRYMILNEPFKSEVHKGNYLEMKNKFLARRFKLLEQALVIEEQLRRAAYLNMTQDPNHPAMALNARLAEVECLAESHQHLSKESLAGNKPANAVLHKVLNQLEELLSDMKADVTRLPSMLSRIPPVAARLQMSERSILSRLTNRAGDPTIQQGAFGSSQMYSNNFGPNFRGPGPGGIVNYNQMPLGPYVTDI
UniProt Q6RI45: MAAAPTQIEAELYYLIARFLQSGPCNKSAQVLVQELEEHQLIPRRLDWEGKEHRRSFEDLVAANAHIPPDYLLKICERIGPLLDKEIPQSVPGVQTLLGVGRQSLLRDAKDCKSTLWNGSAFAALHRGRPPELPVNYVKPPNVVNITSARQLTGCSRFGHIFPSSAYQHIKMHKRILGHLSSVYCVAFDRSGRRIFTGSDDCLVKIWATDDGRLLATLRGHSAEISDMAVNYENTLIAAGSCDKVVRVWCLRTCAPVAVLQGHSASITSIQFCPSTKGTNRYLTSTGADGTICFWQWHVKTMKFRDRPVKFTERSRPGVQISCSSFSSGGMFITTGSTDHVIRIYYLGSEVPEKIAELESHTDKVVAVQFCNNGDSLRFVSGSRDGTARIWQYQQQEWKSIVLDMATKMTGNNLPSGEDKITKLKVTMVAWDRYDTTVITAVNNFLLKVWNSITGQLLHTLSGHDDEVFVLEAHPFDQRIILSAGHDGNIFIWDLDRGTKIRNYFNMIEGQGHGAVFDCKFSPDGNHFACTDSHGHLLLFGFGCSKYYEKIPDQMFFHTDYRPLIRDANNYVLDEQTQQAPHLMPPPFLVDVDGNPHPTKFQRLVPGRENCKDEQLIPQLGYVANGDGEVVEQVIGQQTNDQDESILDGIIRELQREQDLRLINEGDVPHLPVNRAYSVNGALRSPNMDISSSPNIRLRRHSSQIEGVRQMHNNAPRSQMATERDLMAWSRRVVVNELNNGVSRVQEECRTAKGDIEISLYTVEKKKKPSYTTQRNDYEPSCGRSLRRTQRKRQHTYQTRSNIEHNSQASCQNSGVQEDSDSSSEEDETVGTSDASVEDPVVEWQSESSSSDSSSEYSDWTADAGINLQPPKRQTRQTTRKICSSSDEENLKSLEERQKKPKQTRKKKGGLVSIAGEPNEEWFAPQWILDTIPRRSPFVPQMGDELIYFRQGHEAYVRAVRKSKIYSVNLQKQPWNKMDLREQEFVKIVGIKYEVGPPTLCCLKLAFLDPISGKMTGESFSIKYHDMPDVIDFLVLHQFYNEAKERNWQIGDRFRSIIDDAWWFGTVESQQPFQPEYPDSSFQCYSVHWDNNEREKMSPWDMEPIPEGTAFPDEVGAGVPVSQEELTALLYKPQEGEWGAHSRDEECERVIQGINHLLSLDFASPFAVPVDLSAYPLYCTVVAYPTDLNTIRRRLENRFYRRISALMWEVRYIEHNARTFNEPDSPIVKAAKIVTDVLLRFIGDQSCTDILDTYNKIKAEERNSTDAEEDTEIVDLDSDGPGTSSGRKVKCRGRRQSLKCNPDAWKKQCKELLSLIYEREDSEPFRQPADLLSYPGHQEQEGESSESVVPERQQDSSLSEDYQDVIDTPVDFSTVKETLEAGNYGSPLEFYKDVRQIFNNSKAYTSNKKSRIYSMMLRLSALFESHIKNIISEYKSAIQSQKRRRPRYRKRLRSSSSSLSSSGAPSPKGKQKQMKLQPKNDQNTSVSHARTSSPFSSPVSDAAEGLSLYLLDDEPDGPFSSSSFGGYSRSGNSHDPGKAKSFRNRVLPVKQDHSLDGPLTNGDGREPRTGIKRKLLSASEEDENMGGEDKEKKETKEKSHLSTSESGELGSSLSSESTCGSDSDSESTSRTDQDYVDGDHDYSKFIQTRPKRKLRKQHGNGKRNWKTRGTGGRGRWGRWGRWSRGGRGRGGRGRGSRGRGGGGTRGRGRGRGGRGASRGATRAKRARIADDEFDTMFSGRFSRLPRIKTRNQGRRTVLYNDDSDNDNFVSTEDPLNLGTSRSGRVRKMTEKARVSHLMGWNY
UniProt Q92769: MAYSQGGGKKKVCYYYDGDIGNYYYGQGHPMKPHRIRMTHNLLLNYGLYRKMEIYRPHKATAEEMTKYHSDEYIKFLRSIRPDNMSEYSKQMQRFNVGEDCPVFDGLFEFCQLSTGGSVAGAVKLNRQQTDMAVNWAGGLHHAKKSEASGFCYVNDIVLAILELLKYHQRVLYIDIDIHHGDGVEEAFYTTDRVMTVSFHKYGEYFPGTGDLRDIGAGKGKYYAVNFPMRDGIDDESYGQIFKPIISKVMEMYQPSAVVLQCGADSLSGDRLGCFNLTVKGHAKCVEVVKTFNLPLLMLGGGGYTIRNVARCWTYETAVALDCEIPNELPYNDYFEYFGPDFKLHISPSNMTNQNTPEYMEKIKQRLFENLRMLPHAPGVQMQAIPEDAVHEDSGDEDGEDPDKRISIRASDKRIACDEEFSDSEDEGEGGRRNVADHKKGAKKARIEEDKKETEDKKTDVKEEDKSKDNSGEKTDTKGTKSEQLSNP

T1: GFP–PWWP2A (human) (UniProt Q96N64)
T1 sequence: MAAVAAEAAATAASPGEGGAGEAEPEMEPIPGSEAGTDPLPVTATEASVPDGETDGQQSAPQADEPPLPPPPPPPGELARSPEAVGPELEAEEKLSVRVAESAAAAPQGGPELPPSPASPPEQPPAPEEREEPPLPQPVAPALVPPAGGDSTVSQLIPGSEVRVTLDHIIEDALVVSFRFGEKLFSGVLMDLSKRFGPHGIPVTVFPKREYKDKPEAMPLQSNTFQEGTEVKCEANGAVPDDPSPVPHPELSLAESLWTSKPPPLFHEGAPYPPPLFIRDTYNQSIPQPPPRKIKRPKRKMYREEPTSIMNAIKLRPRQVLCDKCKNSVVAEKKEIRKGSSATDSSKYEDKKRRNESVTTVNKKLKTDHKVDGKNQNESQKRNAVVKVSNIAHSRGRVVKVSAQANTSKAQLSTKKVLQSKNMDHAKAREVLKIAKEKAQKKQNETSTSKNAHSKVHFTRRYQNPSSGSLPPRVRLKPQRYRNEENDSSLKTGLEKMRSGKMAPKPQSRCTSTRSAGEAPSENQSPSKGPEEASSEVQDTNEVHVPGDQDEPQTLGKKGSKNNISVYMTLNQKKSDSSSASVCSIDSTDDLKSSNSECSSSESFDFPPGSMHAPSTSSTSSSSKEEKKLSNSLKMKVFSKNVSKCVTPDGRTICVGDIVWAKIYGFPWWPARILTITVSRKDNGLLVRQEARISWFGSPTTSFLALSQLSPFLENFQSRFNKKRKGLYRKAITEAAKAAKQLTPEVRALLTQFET

B1: BAHD1 (protein, UniProt Q8TBE0 1-780)
chain: MTHTRRKSLPMLSSGLTGRREPLQMEDSNMEQGVEGVEPGMPESPGHLTGRRKNYPLRKRPLVPEKPKACKVLLTRLENVAGPRSADEADELPPDLPKPPSPAPSSEDPGLAQPRKRRLASLNAEALNNLLLEREDTSSLAGTRRSRAGDPHRSRDRDRATGGWSSSKKRPRLGDLGGGSRDLSPEPAPDEGPRRDGDPAPKRLASLNAAAFLKLSQERELPLRLPRAHAEVDGRSTEPPAPKAPRPKWPKVNGKNYPKAWQGASSGEAAGPPGWQGCPDEPWPSATPCGPSVQPSHQPLSKALESPLGLRPHLPLLMGGQAALKPEPGRPGEESPAPKQELHQPSFPTPQLSPLPMPGNPADYNGLCVGPELTALGSFYLYCGQEGLQCGGYSPCPMLPEGKLSPVAAPHEEGLLLAPSSVPSGTPFQHPPWGSSRYCSSEDTGVNGYSICGVLPLSVTHAGTTCGGCPYKMPFAAEGCRSLGQLEFPLPEAGHPASPAHPLLGCPVPSVPPAAEPVPHLQTPTSEPQTVARACPQSAKPPSGSKSGLRTGSSCRHTARSKAARRPSHPKQPRVQRPRPRRRRRRRTNGWVPVGAACEKAVYVLDEPEPAIRKSYQAVERHGETIRVRDTVLLKSGPRKTSTPYVAKISALWENPESGELMMSLLWYYRPEHLQGGRSPSMHEPLQNEVFASRHQDQNSVACIEEKCYVLTFAEYCRFCAMAKRRGEGLPSRKTALVPPSADYSTPPHRTVPEDTDPELVFLCRHVYDFRHGRILKNPQ
B2: ZNF512B (protein, UniProt Q96KM6 1-892)
chain: MTDPFCVGGRRLPGSSKSGPGKDGSRKEVRLPMLHDPPKMGMPVVRGGQTVPGQAPLCFDPGSPASDKTEGKKKGRPKAENQALRDIPLSLMNDWKDEFKAHSRVKCPNSGCWLEFPSIYGLKYHYQRCQGGAISDRLAFPCPFCEAAFTSKTQLEKHRIWNHMDRPLPASKPGPISRPVTISRPVGVSKPIGVSKPVTIGKPVGVSKPIGISKPVSVGRPMPVTKAIPVTRPVPVTKPVTVSRPMPVTKAMPVTKPITVTKSVPVTKPVPVTKPITVTKLVTVTKPVPVTKPVTVSRPIVVSKPVTVSRPIAISRHTPPCKMVLLTRSENKAPRATGRNSGKKRAADSLDTCPIPPKQARPENGEYGPSSMGQSSAFQLSADTSSGSLSPGSRPSGGMEALKAAGPASPPEEDPERTKHRRKQKTPKKFTGEQPSISGTFGLKGLVKAEDKARVHRSKKQEGPGPEDARKKVPAAPITVSKEAPAPVAHPAPGGPEEQWQRAIHERGEAVCPTCNVVTRKTLVGLKKHMEVCQKLQDALKCQHCRKQFKSKAGLNYHTMAEHSAKPSDAEASEGGEQEERERLRKVLKQMGRLRCPQEGCGAAFSSLMGYQYHQRRCGKPPCEVDSPSFPCTHCGKTYRSKAGHDYHVRSEHTAPPPEEPTDKSPEAEDPLGVERTPSGRVRRTSAQVAVFHLQEIAEDELARDWTKRRMKDDLVPETARLNYTRPGLPTLNPQLLEAWKNEVKEKGHVNCPNDCCEAIYSSVSGLKAHLASCSKGAHLAGKYRCLLCPKEFSSESGVKYHILKTHAENWFRTSADPPPKHRSQDSLVPKKEKKKNLAGGKKRGRKPKERTPEEPVAKLPPRRDDWPPGCRDKGARGSTGRKVGVSKAPEK
B3: PHF14 (protein, UniProt O94880 1-948)
chain: MDRSSKRRQVKPLAASLLEALDYDSSDDSDFKVGDASDSEGSGNGSEDASKDSGEGSCSDSEENILEEELNEDIKVKEEQLKNSAEEEVLSSEKQLIKMEKKEEEENGERPRKKKEKEKEKEKEKEKEKEREKEKEKATVSENVAASAAATTPATSPPAVNTSPSVPTTTTATEEQVSEPKKWNLRRNRPLLDFVSMEELNDMDDYDSEDDNDWRPTVVKRKGRSASQKEGSDGDNEDDEDEGSGSDEDENDEGNDEDHSSPASEGGCKKKKSKVLSRNSADDEELTNDSLTLSQSKSNEDSLILEKSQNWSSQKMDHILICCVCLGDNSEDADEIIQCDNCGITVHEGCYGVDGESDSIMSSASENSTEPWFCDACKCGVSPSCELCPNQDGIFKETDAGRWVHIVCALYVPGVAFGDIDKLRPVTLTEMNYSKYGAKECSFCEDPRFARTGVCISCDAGMCRAYFHVTCAQKEGLLSEAAAEEDIADPFFAYCKQHADRLDRKWKRKNYLALQSYCKMSLQEREKQLSPEAQARINARLQQYRAKAELARSTRPQAWVPREKLPRPLTSSASAIRKLMRKAELMGISTDIFPVDNSDTSSSVDGRRKHKQPALTADFVNYYFERNMRMIQIQENMAEQKNIKDKLENEQEKLHVEYNKLCESLEELQNLNGKLRSEGQGIWALLGRITGQKLNIPAILRAPKERKPSKKEGGTQKTSTLPAVLYSCGICKKNHDQHLLLLCDTCKLHYHLGCLDPPLTRMPRKTKNSYWQCSECDQAGSSDMEADMAMETLPDGTKRSRRQIKEPVKFVPQDVPPEPKKIPIRNTRTRGRKRSFVPEEEKHEERVPRERRQRQSVLQKKPKAEDLRTECATCKGTGDNENLVRCDECRLCYHFGCLDPPLKKSPKQTGYGWICQECDSSSSKEDENEAERKNISQELNMEQKNPKK
B4: PHF20L1 (protein, UniProt A8MW92 1-1017)
chain: MSKKPPNRPGITFEIGARLEALDYLQKWYPSRIEKIDYEEGKMLVHFERWSHRYDEWIYWDSNRLRPLERPALRKEGLKDEEDFFDFKAGEEVLARWTDCRYYPAKIEAINKEGTFTVQFYDGVIRCLKRMHIKAMPEDAKGQVKSQHPLSWCCPIDPAGSCNQSMGSEDWIALVKAAAAAAAKNKTGSKPRTSANSNKDKDKDERKWFKVPSKKEETSTCIATPDVEKKEDLPTSSETFGLHVENVPKMVFPQPESTLSNKRKNNQGNSFQAKRARLNKITGLLASKAVGVDGAEKKEDYNETAPMLEQAISPKPQSQKKNEADISSSANTQKPALLSSTLSSGKARSKKCKHESGDSSGCIKPPKSPLSPELIQVEDLTLVSQLSSSVINKTSPPQPVNPPRPFKHSERRRRSQRLATLPMPDDSVEKVSSPSPATDGKVFSISSQNQQESSVPEVPDVAHLPLEKLGPCLPLDLSRGSEVTAPVASDSSYRNECPRAEKEDTQMLPNPSSKAIADGRGAPAAAGISKTEKKVKLEDKSSTAFGKRKEKDKERREKRDKDHYRPKQKKKKKKKKKSKQHDYSDYEDSSLEFLERCSSPLTRSSGSSLASRSMFTEKTTTYQYPRAILSVDLSGENLSDVDFLDDSSTESLLLSGDEYNQDFDSTNFEESQDEDDALNEIVRCICEMDEENGFMIQCEECLCWQHSVCMGLLEESIPEQYICYICRDPPGQRWSAKYRYDKEWLNNGRMCGLSFFKENYSHLNAKKIVSTHHLLADVYGVTEVLHGLQLKIGILKNKHHPDLHLWACSGKRKDQDQIIAGVEKKIAQDTVNREEKKYVQNHKEPPRLPLKMEGTYITSEHSYQKPQSFGQDCKSLADPGSSDDDDVSSLEEEQEFHMRSKNSLQYSAKEHGMPEKNPAEGNTVFVYNDKKGTEDPGDSHLQWQLNLLTHIENVQNEVTSRMDLIEKEVDVLESWLDFTGELEPPDPLARLPQLKRHIKQLLIDMGKVQQIATLCSV
B5: PWWP2B (protein, UniProt Q6NUJ5 1-590)
chain: MEPRAGCRLPVRVEQVVNGALVVTVSCGERSFAGILLDCTKKSGLFGLPPLAPLPQVDESPVNDSHGRAPEEGDAEVMQLGSSSPPPARGVQPPETTRPEPPPPLVPPLPAGSLPPYPPYFEGAPFPHPLWLRDTYKLWVPQPPPRTIKRTRRRLSRNRDPGRLILSTIRLRPRQVLCEKCKSTLSPPEASPGPPAAPRARRRLGSGPDRELRKPEEPENGEPTAAATARRSKRERREEDRAPAEQVPRSPVIKISYSTPQGKGEVVKIPSRVHGSLEPFRPQQAPQDDGSQDPEVLDRESRDRPSCAPSASIPKLKLTRPVPAGADLPPPKIRLKPHRLGDSEHEPVYRAELVGELNGYLRDSSPAPCADGPAGGLADLSSGSSGEDDDFKSCPQGPQGREGLAFLVSCPEGRADCASESACSSDSLDEARSSGSEGTPADTGDLSPGHGASAPSVSREARQTVPPLTVRLHTQSVSECITEDGRTVAVGDIVWGKIHGFPWWPARVLDISLGQKEDGEPSWREAKVSWFGSPTTSFLSISKLSPFSEFFKLRFNRKKKGMYRKAITEAANAARHVAPEIRELLTQFET

biological target: T1, GFP–PWWP2A (human); assay: affinity purification with mass spectrometry; chromatin of HK cells stably expressing GFP or GFP–PWWP2A digested with MNase to mononucleosomes, GFP-TRAP beads, on-bead tryptic digestion, label-free MS/MS

| binding | Molecule |
| --- | --- |
| no binding | CHD3 (from UniProt Q12873 1-2000) (enzyme) |
| binds | RAI1 (from UniProt Q7Z5J4 1-1906) |
| binds | HMG20A (from UniProt Q9NP66 1-347) |
| no binding | CHD4 (from UniProt Q14839 1-1912) (enzyme) |
| no binding | CHD5 (from UniProt Q8TDI0 1-1954) (enzyme) |
| no binding | MBD2 (from UniProt Q9UBB5 1-411) |
| binds | ATRX (from UniProt P46100 1-2492) |
| binds | MDC1 (from UniProt Q14676 1-2089) |
| binds | BRWD3 (from UniProt Q6RI45 1-1802) |
| no binding | GATAD2B (from UniProt Q8WXI9 1-593) |
| binds | B1 |
| binds | B2 |
| binds | B3 |
| binds | B5 |

| Molecule | binding |
| --- | --- |
| HDAC2 (from UniProt Q92769 1-488) (enzyme) | binds |
| DAXX (from UniProt Q9UER7 1-740) | binds |
| B4 | binds |
